The target in experiment [1] is T1, S1P1 (Homo sapiens, UniProt P21453). Briefly: 35S-GTPγS binding on membranes of CHO cells expressing S1P1. The settings on record: read-out: S1P1/GTPG EC50, tested form: HCl.
The next experiment concerns the target S1P3 (Homo sapiens, UniProt Q99500). Briefly: 35S-GTPγS binding on membranes of CHO cells expressing S1P3. The settings on record: read-out: S1P3/GTPG EC50, tested form: HCl.
The target in experiment [2] is T1, S1P1. Put plainly: Receptor binding assay, [33P]sphingosine 1-phosphate competition, S1P1 membranes, WGA SPA beads. The settings on record: read-out: S1P1 binding Ki (M) (96 well-plate), tested form: HCl.
In experiment [3] the target is T1, S1P1. Briefly: S1P1 internalization assay in S1P1-U2OS cells (S1P1-EGFP), cell imaging. The settings on record: read-out: S1P1 Internalization EC50, 1 hour incubation, tested form: HCl.

By UniProt entry, the sequences of proteins in these tests, tags left out.
UniProt P21453, whole entry: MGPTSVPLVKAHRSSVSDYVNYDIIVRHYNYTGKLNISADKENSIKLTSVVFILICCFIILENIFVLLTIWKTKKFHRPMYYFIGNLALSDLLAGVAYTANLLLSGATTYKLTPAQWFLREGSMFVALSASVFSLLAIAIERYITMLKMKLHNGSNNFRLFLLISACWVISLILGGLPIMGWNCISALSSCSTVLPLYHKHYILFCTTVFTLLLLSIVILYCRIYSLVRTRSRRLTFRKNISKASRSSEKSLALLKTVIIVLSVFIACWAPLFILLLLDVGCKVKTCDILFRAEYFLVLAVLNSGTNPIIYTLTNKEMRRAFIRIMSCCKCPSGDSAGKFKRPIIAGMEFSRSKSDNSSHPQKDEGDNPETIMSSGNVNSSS
UniProt Q99500, whole entry: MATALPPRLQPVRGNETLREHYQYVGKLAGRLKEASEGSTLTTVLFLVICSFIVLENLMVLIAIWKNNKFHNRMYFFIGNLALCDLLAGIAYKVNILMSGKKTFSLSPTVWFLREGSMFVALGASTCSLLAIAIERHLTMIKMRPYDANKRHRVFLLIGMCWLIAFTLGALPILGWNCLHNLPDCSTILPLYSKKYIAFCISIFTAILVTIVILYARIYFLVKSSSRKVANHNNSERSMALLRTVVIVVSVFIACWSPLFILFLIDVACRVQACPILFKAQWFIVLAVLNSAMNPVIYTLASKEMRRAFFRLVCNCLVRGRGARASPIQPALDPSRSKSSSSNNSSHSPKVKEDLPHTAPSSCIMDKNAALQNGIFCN

The match of structure and compound is tentative.

Consider `CCc1ccccc1-c1ccc(-c2nc(-c3cccc(CN(C)CCC(=O)O)c3)no2)cc1COC`, for which the EC50 at S1P1 [1] stood at 0.893 nM; on S1P3, 317 nM; on S1P1 [3], 3.13 nM. Further, the inhibition constant Ki on S1P1 [2] stood at 4.2e-10 M.

(Values after patent publication US8815919B2, “Oxadiazole derivatives” (Merck Serono SA, priority 2009, dated 2014).)
